Laboratory results as given in the supplement of paper PMC10849652.
This is one part of the list.

Chains of the proteins cited; added tags and fusions are not shown. Lines headed by an entry give the natural chain unless they say otherwise; changes in a name come on top.
UniProt O75438, whole entry, looked up: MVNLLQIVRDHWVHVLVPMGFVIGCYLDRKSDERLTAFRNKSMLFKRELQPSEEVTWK
UniProt Q9HCH0: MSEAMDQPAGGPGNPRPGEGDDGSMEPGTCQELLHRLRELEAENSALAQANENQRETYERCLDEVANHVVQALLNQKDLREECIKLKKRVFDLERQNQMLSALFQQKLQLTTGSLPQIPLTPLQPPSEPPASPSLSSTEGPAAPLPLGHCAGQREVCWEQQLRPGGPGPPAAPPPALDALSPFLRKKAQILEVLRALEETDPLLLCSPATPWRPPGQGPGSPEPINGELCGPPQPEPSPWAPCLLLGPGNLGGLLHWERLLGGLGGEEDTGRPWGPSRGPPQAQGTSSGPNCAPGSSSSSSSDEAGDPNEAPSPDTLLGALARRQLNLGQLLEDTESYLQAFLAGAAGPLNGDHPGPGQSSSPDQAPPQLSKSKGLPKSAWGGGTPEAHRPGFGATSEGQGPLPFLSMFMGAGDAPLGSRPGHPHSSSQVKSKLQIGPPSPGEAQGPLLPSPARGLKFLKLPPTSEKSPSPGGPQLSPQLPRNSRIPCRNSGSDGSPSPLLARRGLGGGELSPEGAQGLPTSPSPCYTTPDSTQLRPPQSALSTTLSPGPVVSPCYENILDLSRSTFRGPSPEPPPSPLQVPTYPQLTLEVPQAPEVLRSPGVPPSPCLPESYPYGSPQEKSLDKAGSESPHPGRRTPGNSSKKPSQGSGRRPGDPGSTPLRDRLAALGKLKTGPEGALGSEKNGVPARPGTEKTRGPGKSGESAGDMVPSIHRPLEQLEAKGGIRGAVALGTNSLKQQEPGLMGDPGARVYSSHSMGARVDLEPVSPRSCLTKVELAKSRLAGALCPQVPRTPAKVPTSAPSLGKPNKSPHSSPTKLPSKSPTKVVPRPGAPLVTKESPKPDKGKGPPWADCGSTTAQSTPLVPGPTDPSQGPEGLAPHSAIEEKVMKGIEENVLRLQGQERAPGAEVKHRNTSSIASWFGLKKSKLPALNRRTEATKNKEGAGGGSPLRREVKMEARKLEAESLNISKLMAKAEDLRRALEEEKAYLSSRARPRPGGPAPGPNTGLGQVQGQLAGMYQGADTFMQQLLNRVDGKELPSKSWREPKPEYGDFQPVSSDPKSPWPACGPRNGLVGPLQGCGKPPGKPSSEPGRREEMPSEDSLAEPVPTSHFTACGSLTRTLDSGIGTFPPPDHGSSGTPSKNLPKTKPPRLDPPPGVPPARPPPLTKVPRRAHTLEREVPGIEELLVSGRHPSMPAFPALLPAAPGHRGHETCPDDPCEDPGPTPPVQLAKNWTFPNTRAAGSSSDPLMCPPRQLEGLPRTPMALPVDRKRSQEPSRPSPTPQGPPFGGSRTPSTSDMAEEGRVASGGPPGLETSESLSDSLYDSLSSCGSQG
UniProt Q6ZVX7: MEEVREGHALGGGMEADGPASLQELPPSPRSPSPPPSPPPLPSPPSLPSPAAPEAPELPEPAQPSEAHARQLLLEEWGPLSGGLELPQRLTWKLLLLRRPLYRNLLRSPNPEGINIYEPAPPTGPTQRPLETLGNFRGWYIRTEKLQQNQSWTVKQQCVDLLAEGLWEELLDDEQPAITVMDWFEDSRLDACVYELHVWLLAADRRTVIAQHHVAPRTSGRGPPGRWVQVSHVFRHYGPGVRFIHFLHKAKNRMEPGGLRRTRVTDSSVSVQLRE
UniProt Q14686, whole entry, looked up: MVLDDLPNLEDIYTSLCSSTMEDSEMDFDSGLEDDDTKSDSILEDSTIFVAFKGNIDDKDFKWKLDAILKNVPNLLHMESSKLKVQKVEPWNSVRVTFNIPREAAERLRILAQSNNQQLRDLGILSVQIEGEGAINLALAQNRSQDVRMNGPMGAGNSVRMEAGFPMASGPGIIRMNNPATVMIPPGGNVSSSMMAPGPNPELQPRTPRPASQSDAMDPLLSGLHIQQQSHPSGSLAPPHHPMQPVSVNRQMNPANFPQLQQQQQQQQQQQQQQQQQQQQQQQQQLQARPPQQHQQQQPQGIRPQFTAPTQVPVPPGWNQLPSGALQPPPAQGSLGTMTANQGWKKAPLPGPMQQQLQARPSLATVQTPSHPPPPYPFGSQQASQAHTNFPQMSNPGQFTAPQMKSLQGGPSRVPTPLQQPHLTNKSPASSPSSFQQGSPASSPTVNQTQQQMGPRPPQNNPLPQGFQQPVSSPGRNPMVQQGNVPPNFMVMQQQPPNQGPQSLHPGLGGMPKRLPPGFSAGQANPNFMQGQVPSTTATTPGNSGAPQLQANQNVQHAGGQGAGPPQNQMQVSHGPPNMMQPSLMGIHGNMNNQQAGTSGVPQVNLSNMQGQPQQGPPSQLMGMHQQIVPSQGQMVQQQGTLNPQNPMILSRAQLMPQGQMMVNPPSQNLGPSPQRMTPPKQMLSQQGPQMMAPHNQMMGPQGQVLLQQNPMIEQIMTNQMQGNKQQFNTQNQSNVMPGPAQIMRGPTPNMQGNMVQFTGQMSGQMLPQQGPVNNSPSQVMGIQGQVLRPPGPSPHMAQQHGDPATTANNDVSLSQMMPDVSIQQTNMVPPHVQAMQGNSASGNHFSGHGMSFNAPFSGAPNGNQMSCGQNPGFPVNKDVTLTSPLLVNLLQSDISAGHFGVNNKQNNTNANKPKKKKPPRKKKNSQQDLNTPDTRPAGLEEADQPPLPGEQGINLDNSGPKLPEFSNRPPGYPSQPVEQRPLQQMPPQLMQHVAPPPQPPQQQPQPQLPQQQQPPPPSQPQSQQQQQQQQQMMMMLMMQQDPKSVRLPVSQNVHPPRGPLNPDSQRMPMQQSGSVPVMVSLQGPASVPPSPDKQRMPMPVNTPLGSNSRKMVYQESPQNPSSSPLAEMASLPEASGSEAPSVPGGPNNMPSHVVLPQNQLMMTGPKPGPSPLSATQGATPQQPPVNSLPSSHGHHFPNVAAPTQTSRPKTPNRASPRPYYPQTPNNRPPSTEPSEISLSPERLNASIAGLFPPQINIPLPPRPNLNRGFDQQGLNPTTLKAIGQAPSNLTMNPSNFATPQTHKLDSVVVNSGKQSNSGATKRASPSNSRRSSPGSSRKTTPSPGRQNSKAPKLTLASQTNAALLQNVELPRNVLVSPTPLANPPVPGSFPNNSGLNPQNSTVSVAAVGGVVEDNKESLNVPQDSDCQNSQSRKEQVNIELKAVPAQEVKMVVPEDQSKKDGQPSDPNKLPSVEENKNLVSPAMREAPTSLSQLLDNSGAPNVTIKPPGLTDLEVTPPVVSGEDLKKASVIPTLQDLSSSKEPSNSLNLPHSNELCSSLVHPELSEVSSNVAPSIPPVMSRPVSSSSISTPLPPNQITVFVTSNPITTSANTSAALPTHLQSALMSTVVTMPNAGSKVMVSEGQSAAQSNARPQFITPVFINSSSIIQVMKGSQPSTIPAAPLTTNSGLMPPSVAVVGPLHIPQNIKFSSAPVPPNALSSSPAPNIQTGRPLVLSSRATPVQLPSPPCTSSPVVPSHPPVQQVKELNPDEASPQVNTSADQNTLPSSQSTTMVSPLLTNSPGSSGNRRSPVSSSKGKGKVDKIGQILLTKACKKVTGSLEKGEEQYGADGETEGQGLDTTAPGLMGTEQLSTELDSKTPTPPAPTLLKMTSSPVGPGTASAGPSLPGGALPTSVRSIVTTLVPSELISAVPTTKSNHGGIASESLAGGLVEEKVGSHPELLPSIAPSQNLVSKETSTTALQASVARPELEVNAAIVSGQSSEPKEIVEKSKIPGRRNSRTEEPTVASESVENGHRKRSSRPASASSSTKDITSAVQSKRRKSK
UniProt P52849: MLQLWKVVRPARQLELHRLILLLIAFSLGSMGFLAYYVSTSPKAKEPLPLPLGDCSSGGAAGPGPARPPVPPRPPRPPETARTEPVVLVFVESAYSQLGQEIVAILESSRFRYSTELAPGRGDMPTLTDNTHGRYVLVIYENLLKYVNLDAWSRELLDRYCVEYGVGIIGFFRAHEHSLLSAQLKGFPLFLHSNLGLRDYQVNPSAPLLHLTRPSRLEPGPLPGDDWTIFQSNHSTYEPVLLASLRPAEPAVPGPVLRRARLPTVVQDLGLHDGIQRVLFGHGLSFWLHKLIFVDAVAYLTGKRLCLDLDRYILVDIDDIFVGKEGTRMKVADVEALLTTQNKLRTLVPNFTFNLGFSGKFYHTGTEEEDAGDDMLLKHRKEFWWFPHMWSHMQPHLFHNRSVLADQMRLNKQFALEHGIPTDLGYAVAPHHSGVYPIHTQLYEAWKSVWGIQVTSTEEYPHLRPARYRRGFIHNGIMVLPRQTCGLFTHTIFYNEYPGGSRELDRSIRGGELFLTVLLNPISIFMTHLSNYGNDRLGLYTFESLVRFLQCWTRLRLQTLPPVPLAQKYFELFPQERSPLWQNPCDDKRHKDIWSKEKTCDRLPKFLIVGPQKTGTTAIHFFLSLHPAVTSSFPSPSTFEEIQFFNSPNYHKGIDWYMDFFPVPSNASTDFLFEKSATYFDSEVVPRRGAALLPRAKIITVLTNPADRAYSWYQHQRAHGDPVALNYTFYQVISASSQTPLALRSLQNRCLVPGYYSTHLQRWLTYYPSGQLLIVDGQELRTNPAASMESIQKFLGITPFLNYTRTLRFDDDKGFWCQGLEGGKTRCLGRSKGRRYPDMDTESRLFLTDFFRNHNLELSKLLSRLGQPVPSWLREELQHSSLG
UniProt Q13772: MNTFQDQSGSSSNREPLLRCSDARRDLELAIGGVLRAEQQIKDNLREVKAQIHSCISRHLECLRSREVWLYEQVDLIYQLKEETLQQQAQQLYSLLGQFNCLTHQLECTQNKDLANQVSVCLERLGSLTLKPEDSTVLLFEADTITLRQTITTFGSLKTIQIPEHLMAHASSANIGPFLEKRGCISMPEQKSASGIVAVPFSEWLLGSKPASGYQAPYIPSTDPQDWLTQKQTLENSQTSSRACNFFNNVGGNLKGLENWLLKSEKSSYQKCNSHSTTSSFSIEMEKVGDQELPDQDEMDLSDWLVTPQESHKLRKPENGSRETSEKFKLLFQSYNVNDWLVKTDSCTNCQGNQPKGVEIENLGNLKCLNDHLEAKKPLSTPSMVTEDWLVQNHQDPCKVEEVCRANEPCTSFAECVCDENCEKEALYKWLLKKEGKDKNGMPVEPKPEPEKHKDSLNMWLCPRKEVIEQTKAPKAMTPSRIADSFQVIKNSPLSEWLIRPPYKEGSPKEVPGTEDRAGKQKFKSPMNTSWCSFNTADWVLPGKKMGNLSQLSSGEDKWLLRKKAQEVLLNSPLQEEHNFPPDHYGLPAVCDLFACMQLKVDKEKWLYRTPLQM
UniProt Q02083: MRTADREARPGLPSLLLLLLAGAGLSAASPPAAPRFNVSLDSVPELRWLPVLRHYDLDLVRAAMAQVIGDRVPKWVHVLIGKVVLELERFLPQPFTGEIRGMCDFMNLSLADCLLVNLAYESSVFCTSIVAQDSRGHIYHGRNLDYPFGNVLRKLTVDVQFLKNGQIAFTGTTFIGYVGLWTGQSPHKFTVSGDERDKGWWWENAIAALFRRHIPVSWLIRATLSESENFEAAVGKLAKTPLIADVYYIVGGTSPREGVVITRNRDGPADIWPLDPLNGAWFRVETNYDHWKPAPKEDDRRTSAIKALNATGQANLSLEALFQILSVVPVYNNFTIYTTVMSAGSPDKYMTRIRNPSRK
UniProt Q6IBW4: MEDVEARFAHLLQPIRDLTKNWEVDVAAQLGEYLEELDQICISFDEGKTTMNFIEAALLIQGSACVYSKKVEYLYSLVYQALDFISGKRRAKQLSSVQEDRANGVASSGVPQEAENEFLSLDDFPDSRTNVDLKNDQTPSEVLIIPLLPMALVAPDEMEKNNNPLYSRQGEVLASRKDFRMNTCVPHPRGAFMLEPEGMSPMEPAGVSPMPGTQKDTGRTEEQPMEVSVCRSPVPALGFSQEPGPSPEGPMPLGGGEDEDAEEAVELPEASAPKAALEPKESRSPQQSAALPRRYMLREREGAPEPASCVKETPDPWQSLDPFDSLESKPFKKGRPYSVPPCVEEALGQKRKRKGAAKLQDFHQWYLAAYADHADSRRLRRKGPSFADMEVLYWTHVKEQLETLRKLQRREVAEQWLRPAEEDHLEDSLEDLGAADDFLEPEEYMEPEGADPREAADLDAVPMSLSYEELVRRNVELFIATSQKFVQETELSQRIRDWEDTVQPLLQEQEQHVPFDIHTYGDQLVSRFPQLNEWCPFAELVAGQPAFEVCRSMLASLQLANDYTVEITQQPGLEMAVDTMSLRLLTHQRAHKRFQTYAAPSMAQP
UniProt Q92597: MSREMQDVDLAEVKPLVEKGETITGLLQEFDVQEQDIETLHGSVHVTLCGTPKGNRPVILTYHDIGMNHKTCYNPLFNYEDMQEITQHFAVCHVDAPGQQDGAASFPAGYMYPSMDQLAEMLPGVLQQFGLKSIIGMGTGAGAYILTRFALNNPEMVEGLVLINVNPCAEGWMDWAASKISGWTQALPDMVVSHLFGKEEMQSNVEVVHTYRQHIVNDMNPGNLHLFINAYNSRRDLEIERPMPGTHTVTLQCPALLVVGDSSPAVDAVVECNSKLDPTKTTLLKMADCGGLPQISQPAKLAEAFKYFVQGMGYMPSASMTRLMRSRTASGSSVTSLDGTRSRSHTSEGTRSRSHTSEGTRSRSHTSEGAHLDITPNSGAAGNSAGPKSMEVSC

Assays:
Assay in all cases: log2 fold change, soluble protein after heating vs DMSO (PISA); higher = thermal stabilisation; K562 cells, 10 uM, 30 min; active = over 0.2 and 3.5 SD of the protein, either way, in both replicates (recomputed)
[1] = compound: CNC(=O)C1=CC=CC=C1NC2=NC(=NC=C2Cl)NC3=C(C=C(C=C3)N4CCOCC4)OC
How it was run: (§1)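 K562 cells at 2×10^6 cells/mL were treated with 10 μM compound for 30 min. Aliquots were heated for 3 min across 48°C-58°C, pooled, and extracted in PBS with 0.5% NP-40 at 4°C; soluble protein was the supernatant after 21,000xg for 90 min. Soluble protein was quantified by TMTpro 16plex LC-MS/MS with channel sums equalised, and reported as log2 fold change in thermal stability against DMSO controls, with values from duplicates.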

[2] = compound: COC1=CC=C(C=C1)CN2C=CC3=C2C=C(C=C3)C(=O)NO
How it was run: as §1

[3] = compound: COc1cc2nc(-c3cc(F)ccc3O)nc(N[C@@H]3CNC[C@H]3C(C)(C)O)c2cc1OC
How it was run: as §1

lapatinib = compound: CS(=O)(=O)CCNCc1ccc(-c2ccc3ncnc(Nc4ccc(OCc5cccc(F)c5)c(Cl)c4)c3c2)o1 [lapatinib]
How it was run: as §1

sotrastaurin = compound: CN1CCN(c2nc(C3=C(c4c[nH]c5ccccc45)C(=O)NC3=O)c3ccccc3n2)CC1 [sotrastaurin]
How it was run: as §1

filanesib = compound: CON(C)C(=O)N1N=C(c2cc(F)ccc2F)S[C@@]1(CCCN)c1ccccc1 [filanesib]
How it was run: as §1

alisertib = compound: COc1cc(Nc2ncc3c(n2)-c2ccc(Cl)cc2C(c2c(F)cccc2OC)=NC3)ccc1C(=O)O [alisertib]
How it was run: as §1

[4] = compound: COc1cccc2cc(-c3nc([C@H]4CC[C@H](C(=O)O)CC4)n4ncnc(N)c34)[nH]c12
How it was run: as §1

idasanutlin = compound: COc1cc(C(=O)O)ccc1NC(=O)[C@@H]1N[C@@H](CC(C)(C)C)[C@](C#N)(c2ccc(Cl)cc2F)[C@H]1c1cccc(Cl)c1F [idasanutlin]
How it was run: as §1

gefitinib = compound: COc1cc2ncnc(Nc3ccc(F)c(Cl)c3)c2cc1OCCCN1CCOCC1 [gefitinib]
How it was run: as §1

saracatinib = compound: CN1CCN(CCOc2cc(OC3CCOCC3)c3c(Nc4c(Cl)ccc5c4OCO5)ncnc3c2)CC1 [saracatinib]
How it was run: as §1

[5] = compound: CNc1nc(-c2ccc3c(N)n[nH]c3c2)cc(N2C[C@@H](C(=O)NC3CCCCC3)CC[C@H]2C)n1
How it was run: as §1

defactinib = compound: CNC(=O)c1ccc(Nc2ncc(C(F)(F)F)c(NCc3nccnc3N(C)S(C)(=O)=O)n2)cc1 [defactinib]
How it was run: as §1

[6] = compound: COC(=O)[C@H](CCSC)NC(=O)C1=C(C=C(C=C1)NC[C@H](CS)N)C2=CC=CC=C2
How it was run: as §1

Tubastatin A = compound: CN1CCc2c(c3ccccc3n2Cc2ccc(C(=O)NO)cc2)C1 [Tubastatin A]
How it was run: as §1

rucaparib = compound: CNCc1ccc(-c2[nH]c3cc(F)cc4c3c2CCNC4=O)cc1 [rucaparib]
How it was run: as §1

encorafenib = compound: COC(=O)N[C@@H](C)CNc1nccc(-c2cn(C(C)C)nc2-c2cc(Cl)cc(NS(C)(=O)=O)c2F)n1 [encorafenib]
How it was run: as §1

zotarolimus = compound: CO[C@H]1C[C@@H]2CC[C@@H](C)[C@@](O)(O2)C(=O)C(=O)N2CCCC[C@H]2C(=O)O[C@H]([C@H](C)C[C@@H]2CC[C@H](n3cnnn3)[C@H](OC)C2)CC(=O)[C@H](C)/C=C(\C)[C@@H](O)[C@@H](OC)C(=O)[C@H](C)C[C@H](C)/C=C/C=C/C=C/1C [zotarolimus]
How it was run: as §1

pictilisib = compound: CS(=O)(=O)N1CCN(Cc2cc3nc(-c4cccc5[nH]ncc45)nc(N4CCOCC4)c3s2)CC1 [pictilisib]
How it was run: as §1

alvocidib = compound: CN1CC[C@H](c2c(O)cc(O)c3c(=O)cc(-c4ccccc4Cl)oc23)[C@H](O)C1 [alvocidib]
How it was run: as §1

Measured: log2 fold change

NAIP (UniProt Q13075)
inactive: [1] -0.136 | [2] -0.544 | [3] 0.347 | lapatinib -0.597

NDRG2 (UniProt G3V392)
inactive: sotrastaurin 0.064 | [2] -0.059 | filanesib -0.082 | alisertib 0.016 | [3] -0.062 | [4] 0.149 | lapatinib -0.265

NATD1 (UniProt Q8N6N6)
inactive: idasanutlin -0.017 | alisertib 0.037 | [3] 0.178 | gefitinib -0.016 | [4] -0.08 | lapatinib -0.115

NABP2 (UniProt Q9BQ15)
inactive: saracatinib 0.006 | [5] -0.032

NDUFA7 (UniProt M0R0N0)
inactive: sotrastaurin 0.201 | [1] -0.195 | defactinib 0.076 | [6] 0.093 | filanesib -0.042

NDUFB1 (UniProt O75438)
inactive: sotrastaurin 0.015 | Tubastatin A -0.09 | [1] -0.01 | defactinib -0.021 | rucaparib -0.035 | encorafenib 0.001 | [6] 0.034 | [2] 0.031 | filanesib -0.029 | zotarolimus -0.055 | idasanutlin 0.029 | alisertib -0.062 | [3] -0.08 | gefitinib 0.083 | [4] 0.076 | lapatinib -0.028 | pictilisib -0.196

NDFIP2 (UniProt Q9NV92)
inactive: sotrastaurin 0.201 | Tubastatin A -0.096 | [1] 0.168 | filanesib -0.488 | alisertib -0.396 | [3] -0.091 | [4] -0.065 | lapatinib 0.056

NEB isoform 3 (UniProt P20929)
inactive: saracatinib 0.233 | alvocidib 0.139 | [1] 0.029 | defactinib -0.148 | rucaparib 0.007 | [5] 0.022 | encorafenib -0.019 | [6] 0.06 | zotarolimus -0.098 | idasanutlin 0.12 | gefitinib 0.039 | pictilisib 0.076

NCKAP5L (UniProt Q9HCH0)
inactive: saracatinib 0.037 | defactinib -0.194 | [5] 0.018 | [6] -0.08 | [2] -0.149 | alisertib 0.11 | [3] -0.058 | [4] 0.156 | lapatinib 0.195

NCCRP1 (UniProt Q6ZVX7)
inactive: saracatinib -0.424 | defactinib -0.092 | rucaparib -0.191 | [5] 0.286 | encorafenib -0.347 | [6] -0.131 | [2] 0.207 | idasanutlin 0.386 | alisertib 1.27 | [4] 0.043

MYOF (UniProt Q9NZM1)
inactive: saracatinib -0.097 | [5] 0.06 | idasanutlin -0.201

NCKIPSD (UniProt Q9NZQ3)
inactive: [1] 0.252 | defactinib -0.168 | [6] -0.204 | idasanutlin 0.021 | [3] -0.087 | lapatinib 0.122 | pictilisib 0.157

NDUFC1 (UniProt O43677)
inactive: alvocidib -0.05 | [1] 0.046 | rucaparib -0.128 | encorafenib 0.041 | zotarolimus 0.112 | idasanutlin 0.086

MYSM1 (UniProt Q5VVJ2)
inactive: sotrastaurin -0.294 | rucaparib 0.003 | encorafenib 0.13 | [2] -0.063 | filanesib -0.007

NA (UniProt B2RBV5)
inactive: sotrastaurin -0.057 | rucaparib -0.16 | encorafenib -0.09 | filanesib 0.081 | alisertib -0.043 | [3] 0.001 | gefitinib -0.33 | [4] 0.028 | lapatinib -0.243 | pictilisib 0.061

NDUFAB1 (UniProt O14561)
inactive: sotrastaurin 0.027 | alvocidib -0.062 | Tubastatin A 0.029 | [1] 0.102 | defactinib -0.071 | rucaparib -0.402 | encorafenib 0.152 | [6] 0.125 | [2] 0.009 | filanesib 0.118 | zotarolimus 0.161 | idasanutlin 0.056 | alisertib -0.09 | gefitinib -0.006 | [4] 0.031 | pictilisib 0.121

NAP1L1 (UniProt B7Z9C2)
inactive: saracatinib -0.168 | [1] 0.041 | defactinib -0.117 | rucaparib -0.041 | [5] -0.706 | encorafenib -0.114 | [6] -0.007 | [2] -0.116 | idasanutlin -0.004 | alisertib 0.258 | gefitinib 0.03 | [4] 0.066 | pictilisib 0.111

NDRG2 (UniProt G3V2A6)
inactive: [1] 0.062

NCOA6 (UniProt Q14686)
inactive: sotrastaurin 0.057 | Tubastatin A -0.012 | [1] -0.023 | defactinib -0.222 | rucaparib 0.068 | encorafenib 0.114 | [6] 0.095 | [2] -0.019 | filanesib -0.047 | idasanutlin 0.078 | alisertib 0.017 | [3] 0.084 | gefitinib -0.053 | [4] 0.026 | lapatinib 0.108 | pictilisib -0.045

NDST2 (UniProt P52849)
inactive: sotrastaurin 0.054 | Tubastatin A 0.035 | [1] -0.229 | defactinib -0.11 | [6] -0.304 | [2] 0.017 | filanesib 0.07 | idasanutlin 0.04 | alisertib -0.056 | gefitinib 0.328 | [4] -0.046

NAA40 (UniProt Q86UY6)
inactive: alvocidib 0.224 | Tubastatin A 0.134 | defactinib 0.046 | rucaparib 0.313 | encorafenib -0.013 | [6] -0.208 | [2] -0.235 | zotarolimus 0.123 | pictilisib 0.114

NCOA3 (UniProt Q9Y6Q9)
inactive: sotrastaurin -0.157 | alvocidib -0.137 | Tubastatin A -0.083 | [1] 0.029 | defactinib -0.206 | rucaparib -0.053 | encorafenib -0.064 | [6] 0.013 | [2] 0.138 | filanesib 0.091 | zotarolimus 0.033 | [3] -0.02 | gefitinib 0.188 | lapatinib 0.09 | pictilisib 0.045

NA, A0A1W2PSA9
inactive: saracatinib -0.046 | Tubastatin A -0.17 | [5] -0.107 | zotarolimus -0.275 | idasanutlin 0.049 | pictilisib -0.179

NCOA4 isoform 4 (UniProt Q13772)
inactive: alvocidib 0.192 | zotarolimus -0.347 | pictilisib -0.28

NBEAL2 (UniProt Q6ZNJ1)
inactive: alvocidib -0.031 | [1] -0.16 | rucaparib 0.031 | encorafenib 0.155 | [2] 0.159 | zotarolimus -0.013 | alisertib -0.195 | [4] -0.026 | pictilisib -0.065

NA, A0A494C071
inactive: saracatinib 0.033 | Tubastatin A -0.197 | defactinib 0.044 | rucaparib -0.359 | [5] -0.062 | encorafenib 0.027 | [6] 0.124 | [2] -0.265 | zotarolimus -0.011 | idasanutlin -0.392 | alisertib 0.016 | gefitinib 0.367 | [4] 0.143 | pictilisib 0.277

NAAA (UniProt Q02083)
inactive: sotrastaurin -0.154 | alvocidib 0.059 | [1] 0.138 | rucaparib -0.071 | encorafenib -0.11 | [2] 0.035 | filanesib -0.037 | zotarolimus 0.214 | alisertib 0.113 | [3] 0.011 | gefitinib 0.106 | [4] 0.141 | lapatinib 0.053 | pictilisib -0.042

NA (UniProt J3KR12)
inactive: [2] 0.123 | alisertib -0.116 | gefitinib -0.134 | [4] 0.077

NBDY, A0A0U1RRE5
inactive: saracatinib -0.03 | alvocidib 0.109 | Tubastatin A -0.004 | [1] -0.14 | [5] 0.019 | zotarolimus -0.058 | idasanutlin 0.02 | alisertib 0.016 | [3] 0.227 | gefitinib 0.029 | [4] 0.122 | lapatinib 0.002 | pictilisib -0.044

NDUFAF7 (UniProt Q7L592)
inactive: sotrastaurin 0.069 | alvocidib -0.142 | Tubastatin A 0.037 | [1] -0.038 | defactinib -0.115 | rucaparib 0.055 | encorafenib 0.069 | [6] -0.025 | [2] 0.118 | filanesib -0.039 | zotarolimus 0.079 | idasanutlin -0.027 | alisertib 0.084 | [3] -0.059 | gefitinib 0.125 | [4] 0.174 | lapatinib -0.024 | pictilisib 0.278

NEK1 isoform 3 (UniProt Q96PY6)
inactive: saracatinib -0.497 | alvocidib 0.014 | [1] -0.142 | defactinib 0.199 | [5] -0.333 | [6] -0.23 | [2] 0.285 | zotarolimus -0.156 | idasanutlin -0.061

NCAPH2 isoform 4 (UniProt Q6IBW4)
inactive: [1] -0.061 | rucaparib 0.178 | encorafenib 0.083 | [2] -0.159 | idasanutlin 0.078 | alisertib -0.151 | gefitinib 0.15 | [4] -0.413

NDUFV1 (UniProt E9PJL9)
inactive: sotrastaurin 0.162 | Tubastatin A -0.138 | defactinib 0.253 | [6] -0.032 | [2] -0.116 | filanesib 0.021 | idasanutlin -0.037 | alisertib 0.086 | [3] 0.165 | gefitinib 0.081 | [4] -0.092 | lapatinib -0.189

NASP isoform 2 (UniProt P49321)
inactive: alisertib -0.129 | [4] -0.58

NDRG1 (UniProt Q92597)
inactive: [1] -0.013 | [3] 0.03 | lapatinib -0.108

Looked up one by one from above, three records:
NCAPH2 isoform 4 (UniProt Q6IBW4)
inactive: [1] -0.061 | rucaparib 0.178 | encorafenib 0.083 | [2] -0.159 | idasanutlin 0.078 | alisertib -0.151 | gefitinib 0.15 | [4] -0.413

NDUFV1 (UniProt E9PJL9)
inactive: sotrastaurin 0.162 | Tubastatin A -0.138 | defactinib 0.253 | [6] -0.032 | [2] -0.116 | filanesib 0.021 | idasanutlin -0.037 | alisertib 0.086 | [3] 0.165 | gefitinib 0.081 | [4] -0.092 | lapatinib -0.189

NDRG1 (UniProt Q92597)
inactive: [1] -0.013 | [3] 0.03 | lapatinib -0.108
